{
  "source": "PubChem BioAssay AID1259415",
  "about": "(National Center for Advancing Translational Sciences (NCATS), 2018)",
  "note": "Screen size: about 410,000 compounds; about 18,000 (4.4%) were called active. Inconclusive results, whose numbers are uncertain, are shown with a selection of clear calls. Rule as the data show it: active = activity change below about -60%; inconclusive = no clear call, values can overlap the other calls; inactive = above about -39%. % is scaled to controls: 0 for no effect and ±100 for the full control effect.",
  "data": [
    {"test": "qHTS Assay for inhibitors of the human cytomegalovirus (HCMV)", "settings": "HFF cells, HCMV-luciferase reporter, 72 h; at 57.5 µM; active compounds read low", "how_it_was_run": "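Inhibition of viral replication was scored as loss of reporter luminescence in HFFs infected with HCMV-luciferase (MOI 1 PFU/cell) for 72 h; compounds tested at 2 doses, normalized to buffer and Salinomycin controls.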", "values": [
      {"smiles": "O=S(=O)(c1cccc2c(S(=O)(=O)N3CCCC3)cccc12)N1CCCC1", "activity change, negative = inhibition": "inactive: 5.34%"},
      {"smiles": "Cc1cc(C)n(-c2nc(SCC(=O)N3CCCC3)c3c4c(sc3n2)CCCC4)n1", "activity change, negative = inhibition": "active: -63.6%"},
      {"smiles": "CS(=O)(=O)N(CC(=O)N1CCN(Cc2ccccc2)CC1)c1ccccc1Br", "activity change, negative = inhibition": "inactive: -19.2%"},
      {"smiles": "COc1ccc(-c2noc(CSc3nnc(-c4ccncc4)n3-c3ccccc3)n2)cc1", "activity change, negative = inhibition": "inconclusive: -46.1%"},
      {"smiles": "CC(C)[C@H](NC(=O)c1ccco1)C(=O)OCC(=O)Nc1ccccc1OC(F)F", "activity change, negative = inhibition": "inconclusive: -43.3%"},
      {"smiles": "CCn1c(CSCc2ccc(F)cc2)nnc1SCC(=O)N1CCN(c2ccccc2)CC1", "activity change, negative = inhibition": "inconclusive: -54.5%"},
      {"smiles": "CN1CCc2cccc(Cl)c2CC1", "activity change, negative = inhibition": "inconclusive: -41.9%"},
      {"smiles": "COc1ccc(NC(C)=O)cc1S(=O)(=O)Nc1ccc(OCc2ccccc2)cc1", "activity change, negative = inhibition": "inconclusive: -49.2%"},
      {"smiles": "CCOC(=O)N1CCN(C(=O)CN2C(=O)CC(C)(C)S(=O)(=O)c3ccccc32)CC1", "activity change, negative = inhibition": "inactive: -9.47%"},
      {"smiles": "CC(=O)N1CCOc2ccc(S(=O)(=O)N3CCC(C(=O)Nc4ccc(C)c(C)c4)CC3)cc21", "activity change, negative = inhibition": "inconclusive: -55.1%"},
      {"smiles": "CCOC(=O)C1(CCCc2ccccc2)CCN(C(=O)CCOC)CC1", "activity change, negative = inhibition": "inconclusive: -46.2%"},
      {"smiles": "CCOc1ccc(NC(=O)C(=O)N/N=C\\c2ccc(CNS(=O)(=O)c3ccccc3)o2)cc1", "activity change, negative = inhibition": "inconclusive: -47.1%"},
      {"smiles": "Cc1sc(NC(=O)CN(Cc2ccccc2)C(=O)C(C)C)c(C(N)=O)c1C", "activity change, negative = inhibition": "inconclusive: -52.1%"},
      {"smiles": "Cc1cc(CNC[C@H]2O[C@@H](n3ccc(=O)[nH]c3=O)[C@H](O)[C@@H]2O)no1", "activity change, negative = inhibition": "inactive: 6.4%"},
      {"smiles": "O=c1c2ccccc2ncn1CCCCOc1ccccc1F", "activity change, negative = inhibition": "active: -105%"},
      {"smiles": "Cc1cccc(C)c1N1C(=O)c2ccccc2NC(=O)C1C(=O)NCCc1ccccc1", "note": "(stereo not given)", "activity change, negative = inhibition": "inactive: -12.2%"},
      {"smiles": "CCN(CC)CCn1c(=N)n(CC(O)COc2ccccc2C)c2ccccc21", "note": "(stereo not given)", "activity change, negative = inhibition": "active: -99.3%"},
      {"smiles": "Cc1ccc(Cn2c(=O)c3c(nc4n3CCN4c3cc(C)cc(C)c3)n(C)c2=O)cc1", "activity change, negative = inhibition": "inconclusive: -54.8%"},
      {"smiles": "O=C(Nc1cc2c(=O)n(-c3ccc(Oc4ccccc4)cc3)ccc2oc1=O)c1ccccc1", "activity change, negative = inhibition": "inconclusive: -44.2%"},
      {"smiles": "Cc1ccc(OCCCC(=O)Nc2ccc(S(=O)(=O)N3CCOCC3)cc2)cc1", "activity change, negative = inhibition": "active: -62.6%"},
      {"smiles": "COc1ccc(CCN2C(=O)CC(Cc3ccccc3)C2=O)cc1OC", "note": "(stereo not given)", "activity change, negative = inhibition": "inconclusive: 0%"},
      {"smiles": "CC(C)c1ccc(C2c3c(-c4ccccc4O)n[nH]c3C(=O)N2CCc2ccccc2)cc1", "note": "(stereo not given)", "activity change, negative = inhibition": "active: -100%"},
      {"smiles": "O=C(N/N=C/c1ccccc1O)c1ccc2c(c1)OCO2", "activity change, negative = inhibition": "active: -91.9%"},
      {"smiles": "CC1CCN(c2ncnc3ccccc23)CC1", "activity change, negative = inhibition": "active: -71.9%"},
      {"smiles": "CC(=O)Oc1ccc(Nc2ccccc2)cc1", "activity change, negative = inhibition": "inconclusive: -40.7%"},
      {"smiles": "CC1=CC(C)(C)N(S(=O)(=O)c2ccc(F)cc2)c2ccc(C)cc21", "activity change, negative = inhibition": "inconclusive: -55.4%"},
      {"smiles": "Cc1ccc(C)c(NS(=O)(=O)c2ccc3c(c2)Cc2cc(S(=O)(=O)Nc4cc(C)ccc4C)ccc2-3)c1", "activity change, negative = inhibition": "inconclusive: -49.3%"},
      {"smiles": "COc1cc(C(=O)N/N=C/c2sc(N3CCOCC3)nc2-c2ccccc2)cc(OC)c1OC", "activity change, negative = inhibition": "inactive: 2.04%"},
      {"smiles": "COC(=O)[C@@]1(Cc2ccc(F)cc2)[C@H]2C(CC(=O)C(=O)N3CCCC3)C(=O)C[C@H]2CN1C(=O)c1ccccc1", "note": "(stereo not given in full)", "activity change, negative = inhibition": "inconclusive: -43.3%"},
      {"smiles": "O=C(Nc1ccc(S(=O)(=O)NCCc2ccccc2)cc1)c1ccco1", "activity change, negative = inhibition": "inconclusive: -47.6%"},
      {"smiles": "CN1CCN(C(=S)Nc2cccc(C(F)(F)F)c2)CC1", "activity change, negative = inhibition": "inconclusive: -55.5%"},
      {"smiles": "C=CCNc1ncnc2ccc(Br)cc12", "activity change, negative = inhibition": "active: -60.6%"},
      {"smiles": "CCOc1ccccc1C(=O)N(Cc1ccc(N(C)C)cc1)Cc1ccco1", "activity change, negative = inhibition": "inconclusive: -46.7%"},
      {"smiles": "CC1(C)Oc2ccc3ccc(=O)oc3c2/C(=C/NC2CCCCC2)C1=O", "activity change, negative = inhibition": "inconclusive: -44.4%"},
      {"smiles": "CCOC(=O)c1ccc2c(c1)n(CC)c(/C=C/N(C)c1ccccc1)[n+]2CC", "activity change, negative = inhibition": "active: -99.9%"},
      {"smiles": "O=C(O)COc1ccccc1/C=N/NC(=O)CSc1nc2ccccc2n1Cc1ccccc1Cl", "activity change, negative = inhibition": "inconclusive: -51.5%"},
      {"smiles": "Cc1cccc(N2CCN(C(=S)c3ccc([N+](=O)[O-])cc3)CC2)c1", "activity change, negative = inhibition": "active: -62.7%"},
      {"smiles": "CC(C)n1nc(Cc2cccc3ccccc23)c(C#N)c1N", "activity change, negative = inhibition": "inactive: 4.28%"},
      {"smiles": "S=C(Nc1ccccc1Cl)NC1CCCCCC1", "activity change, negative = inhibition": "inconclusive: -57.9%"},
      {"smiles": "COc1ccc(/C=C/c2nc3ccccc3n2Cc2ccccc2OC)cc1", "activity change, negative = inhibition": "active: -97.9%"},
      {"smiles": "COc1ccc(OC)c(C2C=C(C34CC5CC(CC(C5)C3)C4)NC(=S)N2)c1", "note": "(stereo not given)", "activity change, negative = inhibition": "inconclusive: -54.8%"},
      {"smiles": "O=C(/C=C/c1cccs1)NNC(=O)c1ccccc1", "activity change, negative = inhibition": "inactive: 104%"},
      {"smiles": "COc1ccc(C(=O)c2cn(Cc3ccccc3F)c3ccc(F)cc3c2=O)cc1", "activity change, negative = inhibition": "inconclusive: -45.1%"},
      {"smiles": "CC(C)C(=O)N(Cc1ccc(F)cc1)Cc1nc2ccccc2c(=O)[nH]1", "activity change, negative = inhibition": "inconclusive: -40.7%"},
      {"smiles": "Cc1ccccc1CS(=O)(=O)CCC(=O)NCc1ccccn1", "activity change, negative = inhibition": "inactive: -10.7%"},
      {"smiles": "NC(=O)C(c1ccc(F)cc1)c1ccc(C(=O)c2ccccc2)cc1", "note": "(stereo not given)", "activity change, negative = inhibition": "inconclusive: -50.4%"},
      {"smiles": "COc1ccc2c(c1)c(C(=O)N/N=C/c1ccccc1Cl)c(C)n2C", "activity change, negative = inhibition": "inconclusive: -43.3%"},
      {"smiles": "[2H]C(CCOS(N)(=O)=O)c1ccc(C(C)(C)C)cc1", "note": "(stereo not given)", "activity change, negative = inhibition": "inconclusive: -51.6%"},
      {"smiles": "O=C(O)CC(CC(=O)O)c1ccsc1", "activity change, negative = inhibition": "inactive: -14.4%"},
      {"smiles": "COc1ccc(CNC(=O)CN(C)c2nn3c(=O)cc(C)nc3s2)cc1", "activity change, negative = inhibition": "inactive: 4.86%"},
      {"smiles": "S=C(NC1CCCCC1)N1CCOCC1", "activity change, negative = inhibition": "inconclusive: -53%"},
      {"smiles": "COc1ccc(C2=Nc3ccccc3N(C(=O)c3ccc4c(c3)OCO4)C2C(=O)NCc2ccccc2)cc1", "note": "(stereo not given)", "activity change, negative = inhibition": "active: -71.5%"},
      {"smiles": "Cc1ccc(C(=O)NCC(=O)OCC(=O)N(CC(C)C)c2c(N)n(Cc3ccccc3)c(=O)[nH]c2=O)s1", "activity change, negative = inhibition": "inconclusive: -40.3%"},
      {"smiles": "O=c1c2cc(Br)ccc2nc(-c2ccc([N+](=O)[O-])cc2)n1O", "activity change, negative = inhibition": "inactive: -39.4%"},
      {"smiles": "CC(=O)C1=C(C)NC(SCC(N)=O)=C(C#N)C1CC(C)C", "note": "(stereo not given)", "activity change, negative = inhibition": "inconclusive: -52.6%"}
    ]}
  ]
}
